Reference: US20230233520A1, “COMBINATION THERAPY OF ARTEMISININ-RELATED COMPOUNDS AND HISTONE DEACETYLASE INHIBITORS FOR TREATMENT OF HPV-RELATED BENIGN, PREMALIGNANT, AND MALIGNANT DISEASES” (Georgetown University, priority 2020, published 2023)

Tests used:
HeLa cells = assay: CELLTITER-GLO cell viability, drugs alone and in combination (Example 4); assay type: cell-based; settings: Homo sapiens, SAHA alone
Protocol: (§1) The cell lines were treated with artesunate, vorinostat, and panobinostat individually and in combination. The IC50 values were calculated from the cell viability assays for each drug alone and in combination. […] Cells were then incubated for a 24-hour period to allow them to adhere to the wells. The cells were then treated with various concentrations of artesunate, panobinostat, and vorinostat. For the experiments involving artesunate and panobinostat, the concentrations used varied by cell type. […] After an incubation time of 72 hours, the CELLTITER-GLO® Luminescent Cell Viability Assay (Promega) was conducted. The buffer/enzyme solution was mixed and applied to the cells according to the Promega protocol. Cells were then placed on the orbital shaker for 2 minutes and then placed in the luminometer for reading. To analyze the data, the background (from only the DMEM media) was subtracted from the luminescence of each well. […] All readings were normalized based upon the control values. […] Analyses were conducted using GraphPad Prism 9. The combination index and dose-reduction index values were calculated based using the summary of the data for all three cell types. […] The combination index and dose-reduction index values were calculated based using the summary of the data for all three cell types. […]

SiHa cells = assay: as above; assay type: cell-based; settings: Homo sapiens, SAHA alone
Protocol: as §1

O=C(CCCCCCC(=O)Nc1ccccc1)NO [vorinostat]
IC50 (HeLa cells): 1380 nM
IC50 (SiHa cells): 1810 nM
